Laboratory results from US20050272653A1.
No constants are given. Whether binding was seen depends on the method and setting. Some binding calls cover weakened binding; strength is not graded here. For part of these data: Tags and fused reporters may be left off the sequences shown.

Protein sequences, listed by entry. Tags and fused reporters are not part of them.
UniProt P27037: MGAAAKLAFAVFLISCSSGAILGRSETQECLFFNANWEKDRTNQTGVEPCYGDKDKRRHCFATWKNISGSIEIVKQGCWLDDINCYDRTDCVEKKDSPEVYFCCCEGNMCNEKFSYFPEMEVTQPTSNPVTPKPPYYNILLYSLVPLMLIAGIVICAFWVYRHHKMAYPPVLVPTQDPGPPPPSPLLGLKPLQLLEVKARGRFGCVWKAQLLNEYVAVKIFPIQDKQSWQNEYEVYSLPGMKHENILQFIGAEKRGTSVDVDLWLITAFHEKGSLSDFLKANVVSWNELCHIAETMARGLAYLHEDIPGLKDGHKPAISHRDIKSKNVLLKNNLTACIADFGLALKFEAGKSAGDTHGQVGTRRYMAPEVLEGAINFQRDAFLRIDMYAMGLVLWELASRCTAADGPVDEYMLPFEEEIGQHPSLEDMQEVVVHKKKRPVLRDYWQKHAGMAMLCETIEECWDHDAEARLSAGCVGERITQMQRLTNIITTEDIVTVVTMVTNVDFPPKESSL

Assays:
mature BMP-3 (human) [1] = molecular target: T1, mature BMP-3 (human) (UniProt P12645); assay: immunoprecipitation on protein A beads, western blot (FIG. 11 legend)
T1 sequence: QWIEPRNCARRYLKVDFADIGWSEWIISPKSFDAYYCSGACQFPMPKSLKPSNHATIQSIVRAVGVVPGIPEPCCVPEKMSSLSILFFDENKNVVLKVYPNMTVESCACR

mature BMP-3 (human) [2] = molecular target: T1, mature BMP-3 (human); assay: immunoprecipitation on protein A beads from conditioned media, western blot with anti-mature BMP-3 monoclonal antibody
mature BMP-3 (human) [3] = molecular target: T1, mature BMP-3 (human); assay: BiaCore CM5 chip, BMP3 pro-MuIgG2a amine coupled, mature BMP-3 flowed over (FIG. 12 legend)
mature BMP-3 (human) [4] = molecular target: T1, mature BMP-3 (human); assay: BiaCore CM5 chip, BMP3 pro-MuIgG2a amine coupled, mature BMP-3 flowed over
Activin Receptor IIa [5] = molecular target: Activin Receptor IIa (UniProt P27037); assay: BiaCore CM5 chip, ActRIIa amine coupled, mature BMP-3 injected at 200 µg/ml (FIG. 13 legend)
Activin Receptor IIa [6] = molecular target: Activin Receptor IIa (UniProt P27037); assay: BiaCore CM5 chip, ActRIIa amine coupled, mature BMP-3 injected at 200 µg/ml

Measured: binding

B1: BMP3A propeptide-Murine IgG2a peptide Fc fusion protein (Fc fusion, not shown: a dimerising Fc or GST)
chain: ERPKPPFPELRKAVPGDRTAGGGPDSELQPQDKVSEHMLRLYDRYSTVQAARTPGSLEGGSQPWRPRLLREGNTVRSFRAAAAETLERKGLYIFNLTSLTKSENILSATLYFCIGELGNISLSCPVSGGCSHHAQRKHIQIDLSAWTLKFSRNQSQLLGHLSVDMAKSHRDIMSWLSKDITQFLRKAKENEEFLIGFNITSKGRQLPKRRLPFPEPYILVYANDAAISEPESVVSSLQGHRNFPTGTVPKWDSHIRAALSIERRKKRSTGVLLPLQNNELPGAEYQYKKDEVWEERKPYKTLQAQAPEKSKNKKKQRKGPHRKSQTLQFDEQTLKKARRK
binds: mature BMP-3 (human) [1] | mature BMP-3 (human) [2] | mature BMP-3 (human) [3] | mature BMP-3 (human) [4]

B2: mature BMP-3 (ligand)
chain: QWIEPRNCARRYLKVDFADIGWSEWIISPKSFDAYYCSGACQFPMPKSLKPSNHATIQSIVRAVGVVPGIPEPCCVPEKMSSLSILFFDENKNVVLKVYPNMTVESCACR
binds: Activin Receptor IIa [5] | Activin Receptor IIa [6]
